These are yes or no findings as the source states them, for the method shown. Binding seen in cells or lysates may run through a third protein. Here binding means that the protein was enriched with, or labelled near, the bait; the list need not be complete. Sequences can lack the tags named with a protein.

Sequences of proteins named here, by UniProt entry; tags and fusion partners are left off.
UniProt Q86U44: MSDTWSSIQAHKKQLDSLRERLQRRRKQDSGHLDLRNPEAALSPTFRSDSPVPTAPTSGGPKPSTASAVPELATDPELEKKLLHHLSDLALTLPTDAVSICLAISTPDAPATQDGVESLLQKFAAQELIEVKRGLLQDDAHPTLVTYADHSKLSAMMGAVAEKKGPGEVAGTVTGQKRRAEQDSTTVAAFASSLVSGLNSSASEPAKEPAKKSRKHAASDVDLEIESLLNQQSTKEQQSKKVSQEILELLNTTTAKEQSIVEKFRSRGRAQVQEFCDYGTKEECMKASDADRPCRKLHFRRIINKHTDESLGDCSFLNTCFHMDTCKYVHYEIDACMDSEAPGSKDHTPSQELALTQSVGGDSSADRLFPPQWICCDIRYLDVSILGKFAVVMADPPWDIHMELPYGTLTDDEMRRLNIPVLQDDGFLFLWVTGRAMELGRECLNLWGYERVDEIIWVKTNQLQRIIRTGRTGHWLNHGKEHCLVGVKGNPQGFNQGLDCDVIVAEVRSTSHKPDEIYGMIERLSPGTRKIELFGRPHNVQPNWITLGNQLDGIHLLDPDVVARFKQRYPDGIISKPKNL

This assay addresses T1, FLAG-tagged SMYD3 (UniProt Q9H7B4).
T1 sequence: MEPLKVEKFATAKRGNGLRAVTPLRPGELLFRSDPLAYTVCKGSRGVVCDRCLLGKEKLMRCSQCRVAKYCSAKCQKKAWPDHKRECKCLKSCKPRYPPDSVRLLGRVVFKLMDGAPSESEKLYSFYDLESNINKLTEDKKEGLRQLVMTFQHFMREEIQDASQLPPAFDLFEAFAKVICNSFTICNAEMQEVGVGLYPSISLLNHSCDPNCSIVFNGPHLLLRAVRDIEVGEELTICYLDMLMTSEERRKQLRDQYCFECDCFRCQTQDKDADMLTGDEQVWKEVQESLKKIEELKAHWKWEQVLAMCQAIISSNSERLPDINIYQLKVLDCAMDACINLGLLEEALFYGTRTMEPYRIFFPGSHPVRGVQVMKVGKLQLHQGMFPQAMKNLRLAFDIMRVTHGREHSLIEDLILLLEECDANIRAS
Kind of assay: affinity purification with mass spectrometry; lysates of LM3 cells expressing FLAG-SMYD3 or FLAG-Vector on anti-FLAG M2 beads, about 1 h at room temperature, eluted with FLAG peptide (0.2 mg/ml), SDS-PAGE, silver stain, LC-MS/MS.

As for METTL3 (from UniProt Q86U44 1-580), the binding result was “binds”.
